# Assay results reported in patent US20040152630A1.
# Chains of the proteins cited; added tags and fusions are not shown.
# UniProt P63103: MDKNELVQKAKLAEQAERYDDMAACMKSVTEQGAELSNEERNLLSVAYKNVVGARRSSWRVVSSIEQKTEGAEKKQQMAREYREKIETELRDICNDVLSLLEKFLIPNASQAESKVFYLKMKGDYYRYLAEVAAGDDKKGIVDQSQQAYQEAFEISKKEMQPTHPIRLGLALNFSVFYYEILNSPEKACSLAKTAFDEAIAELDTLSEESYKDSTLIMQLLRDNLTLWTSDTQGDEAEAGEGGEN
# Results are given in words; binding and its absence hold for the method and conditions named. For some assays here: Binding seen in cells or lysates may run through a third protein. Some entries that bind do so weakly or less than the wild type. Sequences can lack the tags named with a protein.
# B1: EYFP-difopein (designed binder, not shown: large carriers)
# chain: SADGAPHCVPRDLSWLDLEANMCLPGAAGLDSADGAPHCVPRDLSWLDLEANMCLPGAAGLE
# B2: R18 polypeptide (14-3-3 amphipathic groove binding antagonist) (peptide)
# peptide: PHCVPRDLSWLDLEANMCLP
# What was measured:
# FLAG-tagged 14-3-3? [1] = biological target: FLAG-tagged 14-3-3? (UniProt P63103); experiment: co-immunoprecipitation with anti-FLAG (M2) from transfected HEK293 cells
# FLAG-tagged 14-3-3? [2] = biological target: FLAG-tagged 14-3-3? (UniProt P63103); experiment: co-immunoprecipitation from transfected HEK293 cells
# [3] = biological target: His-14-3-3? (immobilized) (UniProt P63103); experiment: competition: peptide preincubated with immobilized His-14-3-3 before [35S]-ASK1; PhosphorImager
# [4] = biological target: His-14-3-3? (immobilized) (UniProt P63103); experiment: competition with [35S]-ASK1 for immobilized His-14-3-3
# 14-3-3? dimer = 14-3-3? dimer (UniProt P63103); experiment: R18-Sepharose pull-down of 14-3-3 with Bad phosphopeptide as competitor
Binder,binding (FLAG-tagged 14-3-3? [1]),binding (FLAG-tagged 14-3-3? [2]),binding [3],binding [4],binding (14-3-3? dimer)
B1,binds,binds,,,
B2,,,binds,binds,binds
